Results: paper doi:10.1101/2025.07.20.665556

Sequences of proteins named here, by UniProt entry; tags and fusion partners are left off. Residues count along the entry.
UniProt P11940: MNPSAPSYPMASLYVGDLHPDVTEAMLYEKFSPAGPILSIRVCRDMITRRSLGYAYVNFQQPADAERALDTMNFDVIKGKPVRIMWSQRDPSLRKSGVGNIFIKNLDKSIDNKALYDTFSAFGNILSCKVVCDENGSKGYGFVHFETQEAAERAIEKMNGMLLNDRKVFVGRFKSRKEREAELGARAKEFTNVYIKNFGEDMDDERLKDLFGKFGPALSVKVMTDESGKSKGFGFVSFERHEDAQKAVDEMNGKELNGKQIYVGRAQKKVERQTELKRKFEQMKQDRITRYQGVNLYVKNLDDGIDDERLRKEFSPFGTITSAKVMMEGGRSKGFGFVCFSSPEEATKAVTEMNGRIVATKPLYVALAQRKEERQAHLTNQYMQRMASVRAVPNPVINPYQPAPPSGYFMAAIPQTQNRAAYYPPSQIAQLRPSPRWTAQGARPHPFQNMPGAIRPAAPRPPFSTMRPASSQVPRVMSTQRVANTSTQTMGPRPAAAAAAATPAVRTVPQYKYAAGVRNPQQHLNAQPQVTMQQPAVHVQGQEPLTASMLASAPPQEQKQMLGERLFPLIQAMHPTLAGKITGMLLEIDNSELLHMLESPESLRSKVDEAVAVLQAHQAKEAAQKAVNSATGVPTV
UniProt Q05639: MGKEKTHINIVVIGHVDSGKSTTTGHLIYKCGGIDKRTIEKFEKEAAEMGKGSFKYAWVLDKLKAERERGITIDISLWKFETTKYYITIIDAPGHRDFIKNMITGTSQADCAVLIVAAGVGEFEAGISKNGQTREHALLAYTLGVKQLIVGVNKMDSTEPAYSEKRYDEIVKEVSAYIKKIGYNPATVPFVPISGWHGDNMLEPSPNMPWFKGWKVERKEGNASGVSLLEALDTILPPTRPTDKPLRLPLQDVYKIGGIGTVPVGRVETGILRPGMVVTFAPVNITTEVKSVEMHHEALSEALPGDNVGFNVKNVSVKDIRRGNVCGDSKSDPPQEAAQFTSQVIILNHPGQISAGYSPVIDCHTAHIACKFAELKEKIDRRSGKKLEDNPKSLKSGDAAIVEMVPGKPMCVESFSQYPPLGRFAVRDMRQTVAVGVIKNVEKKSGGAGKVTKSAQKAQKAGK
UniProt O75884: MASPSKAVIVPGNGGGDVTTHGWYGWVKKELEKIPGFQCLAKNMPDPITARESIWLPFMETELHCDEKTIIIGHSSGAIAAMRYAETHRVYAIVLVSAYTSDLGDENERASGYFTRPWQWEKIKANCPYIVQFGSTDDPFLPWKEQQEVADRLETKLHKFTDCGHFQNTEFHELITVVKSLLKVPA
UniProt P05067, residues 18-770: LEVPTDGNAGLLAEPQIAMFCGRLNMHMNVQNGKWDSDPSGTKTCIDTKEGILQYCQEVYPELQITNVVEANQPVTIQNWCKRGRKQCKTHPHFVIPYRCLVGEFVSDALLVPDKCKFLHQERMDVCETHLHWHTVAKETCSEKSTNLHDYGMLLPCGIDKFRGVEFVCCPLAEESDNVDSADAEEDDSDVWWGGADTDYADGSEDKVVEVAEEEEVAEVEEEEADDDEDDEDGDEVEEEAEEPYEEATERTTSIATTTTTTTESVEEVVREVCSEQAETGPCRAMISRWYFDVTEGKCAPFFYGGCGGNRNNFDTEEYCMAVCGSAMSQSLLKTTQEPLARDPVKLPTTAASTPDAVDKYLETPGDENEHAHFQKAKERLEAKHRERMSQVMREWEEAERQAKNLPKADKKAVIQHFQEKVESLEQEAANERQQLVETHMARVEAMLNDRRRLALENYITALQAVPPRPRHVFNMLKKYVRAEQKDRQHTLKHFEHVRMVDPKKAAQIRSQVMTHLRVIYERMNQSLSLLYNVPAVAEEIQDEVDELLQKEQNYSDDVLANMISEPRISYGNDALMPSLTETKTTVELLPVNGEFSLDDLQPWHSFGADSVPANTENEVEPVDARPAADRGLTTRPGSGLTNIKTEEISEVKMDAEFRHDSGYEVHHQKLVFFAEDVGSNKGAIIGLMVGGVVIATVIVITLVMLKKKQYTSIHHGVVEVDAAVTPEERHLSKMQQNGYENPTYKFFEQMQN
UniProt O75912: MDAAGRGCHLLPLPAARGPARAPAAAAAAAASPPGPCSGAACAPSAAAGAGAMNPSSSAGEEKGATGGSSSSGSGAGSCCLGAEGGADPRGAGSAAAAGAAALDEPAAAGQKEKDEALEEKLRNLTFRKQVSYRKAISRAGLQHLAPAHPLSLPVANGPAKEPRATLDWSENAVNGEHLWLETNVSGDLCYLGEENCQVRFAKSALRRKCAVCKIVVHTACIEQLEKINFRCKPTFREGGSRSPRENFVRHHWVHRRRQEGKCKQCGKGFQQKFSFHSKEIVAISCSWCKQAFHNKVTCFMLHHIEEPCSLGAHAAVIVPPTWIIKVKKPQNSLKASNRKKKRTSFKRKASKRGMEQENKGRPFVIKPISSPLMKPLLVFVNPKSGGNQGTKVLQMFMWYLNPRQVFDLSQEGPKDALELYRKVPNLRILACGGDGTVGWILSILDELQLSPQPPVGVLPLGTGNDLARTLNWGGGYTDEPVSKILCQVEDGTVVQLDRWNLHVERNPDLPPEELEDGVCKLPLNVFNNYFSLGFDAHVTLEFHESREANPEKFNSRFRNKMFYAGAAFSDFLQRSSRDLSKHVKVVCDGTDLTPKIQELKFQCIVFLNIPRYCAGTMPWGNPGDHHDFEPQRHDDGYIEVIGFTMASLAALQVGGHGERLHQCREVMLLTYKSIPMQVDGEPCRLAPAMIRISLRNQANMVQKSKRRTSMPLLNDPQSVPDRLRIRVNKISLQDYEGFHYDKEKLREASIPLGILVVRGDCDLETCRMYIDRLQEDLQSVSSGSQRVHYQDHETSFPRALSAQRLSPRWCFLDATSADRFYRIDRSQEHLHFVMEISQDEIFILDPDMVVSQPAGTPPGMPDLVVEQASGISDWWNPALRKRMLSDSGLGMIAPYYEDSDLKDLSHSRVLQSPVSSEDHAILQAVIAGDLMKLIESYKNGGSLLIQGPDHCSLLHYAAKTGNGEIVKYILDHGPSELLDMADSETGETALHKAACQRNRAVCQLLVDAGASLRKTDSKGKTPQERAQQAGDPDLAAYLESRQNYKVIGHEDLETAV
UniProt Q99729: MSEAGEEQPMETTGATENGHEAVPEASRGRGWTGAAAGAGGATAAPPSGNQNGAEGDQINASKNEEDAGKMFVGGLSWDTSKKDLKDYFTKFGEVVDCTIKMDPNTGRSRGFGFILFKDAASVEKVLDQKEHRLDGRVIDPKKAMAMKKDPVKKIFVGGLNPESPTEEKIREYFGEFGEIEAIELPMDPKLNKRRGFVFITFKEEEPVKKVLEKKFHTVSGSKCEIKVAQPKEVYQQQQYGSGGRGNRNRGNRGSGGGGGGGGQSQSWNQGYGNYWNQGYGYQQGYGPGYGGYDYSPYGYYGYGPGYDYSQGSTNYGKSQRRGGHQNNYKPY
UniProt P68366: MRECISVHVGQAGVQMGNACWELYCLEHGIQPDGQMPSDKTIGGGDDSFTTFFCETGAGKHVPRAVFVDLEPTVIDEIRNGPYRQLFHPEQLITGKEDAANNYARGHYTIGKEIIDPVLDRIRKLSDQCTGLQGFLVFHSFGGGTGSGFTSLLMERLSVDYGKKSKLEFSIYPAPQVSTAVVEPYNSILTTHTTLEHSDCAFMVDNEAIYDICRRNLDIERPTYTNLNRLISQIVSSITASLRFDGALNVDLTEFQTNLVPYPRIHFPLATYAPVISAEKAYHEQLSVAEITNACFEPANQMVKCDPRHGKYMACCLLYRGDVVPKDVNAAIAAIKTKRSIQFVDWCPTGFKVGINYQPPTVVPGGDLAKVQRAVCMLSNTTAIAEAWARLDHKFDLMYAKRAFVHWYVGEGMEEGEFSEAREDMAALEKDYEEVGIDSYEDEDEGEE
UniProt P06396, residues 28-782: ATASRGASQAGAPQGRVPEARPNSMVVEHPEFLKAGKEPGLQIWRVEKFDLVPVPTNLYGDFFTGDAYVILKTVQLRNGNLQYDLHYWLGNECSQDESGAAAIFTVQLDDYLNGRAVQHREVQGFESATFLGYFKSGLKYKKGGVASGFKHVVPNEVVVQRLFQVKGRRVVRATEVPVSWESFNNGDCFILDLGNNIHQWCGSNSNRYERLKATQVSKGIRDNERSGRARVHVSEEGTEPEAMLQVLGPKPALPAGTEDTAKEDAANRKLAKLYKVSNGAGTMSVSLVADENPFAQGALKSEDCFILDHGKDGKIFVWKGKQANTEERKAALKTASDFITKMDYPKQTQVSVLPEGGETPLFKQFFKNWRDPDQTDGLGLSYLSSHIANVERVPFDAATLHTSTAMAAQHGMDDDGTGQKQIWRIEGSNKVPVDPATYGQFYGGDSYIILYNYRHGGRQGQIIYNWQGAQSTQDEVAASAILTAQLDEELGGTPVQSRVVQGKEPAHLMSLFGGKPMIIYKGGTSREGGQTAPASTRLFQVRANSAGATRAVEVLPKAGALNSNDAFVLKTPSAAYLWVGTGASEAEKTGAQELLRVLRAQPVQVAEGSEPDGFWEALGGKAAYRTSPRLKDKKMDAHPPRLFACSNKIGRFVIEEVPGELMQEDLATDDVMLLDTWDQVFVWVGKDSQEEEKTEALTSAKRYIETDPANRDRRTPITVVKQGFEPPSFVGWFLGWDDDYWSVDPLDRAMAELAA
UniProt P67809: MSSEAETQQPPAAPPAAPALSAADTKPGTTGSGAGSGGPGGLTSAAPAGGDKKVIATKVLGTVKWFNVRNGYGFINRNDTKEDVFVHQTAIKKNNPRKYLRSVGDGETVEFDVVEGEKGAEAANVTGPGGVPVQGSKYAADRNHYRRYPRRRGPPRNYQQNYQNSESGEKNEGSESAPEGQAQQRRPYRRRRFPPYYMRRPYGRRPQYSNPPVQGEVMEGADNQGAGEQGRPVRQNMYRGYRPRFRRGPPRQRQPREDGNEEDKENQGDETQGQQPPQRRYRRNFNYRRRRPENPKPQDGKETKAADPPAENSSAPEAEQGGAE
UniProt Q92841: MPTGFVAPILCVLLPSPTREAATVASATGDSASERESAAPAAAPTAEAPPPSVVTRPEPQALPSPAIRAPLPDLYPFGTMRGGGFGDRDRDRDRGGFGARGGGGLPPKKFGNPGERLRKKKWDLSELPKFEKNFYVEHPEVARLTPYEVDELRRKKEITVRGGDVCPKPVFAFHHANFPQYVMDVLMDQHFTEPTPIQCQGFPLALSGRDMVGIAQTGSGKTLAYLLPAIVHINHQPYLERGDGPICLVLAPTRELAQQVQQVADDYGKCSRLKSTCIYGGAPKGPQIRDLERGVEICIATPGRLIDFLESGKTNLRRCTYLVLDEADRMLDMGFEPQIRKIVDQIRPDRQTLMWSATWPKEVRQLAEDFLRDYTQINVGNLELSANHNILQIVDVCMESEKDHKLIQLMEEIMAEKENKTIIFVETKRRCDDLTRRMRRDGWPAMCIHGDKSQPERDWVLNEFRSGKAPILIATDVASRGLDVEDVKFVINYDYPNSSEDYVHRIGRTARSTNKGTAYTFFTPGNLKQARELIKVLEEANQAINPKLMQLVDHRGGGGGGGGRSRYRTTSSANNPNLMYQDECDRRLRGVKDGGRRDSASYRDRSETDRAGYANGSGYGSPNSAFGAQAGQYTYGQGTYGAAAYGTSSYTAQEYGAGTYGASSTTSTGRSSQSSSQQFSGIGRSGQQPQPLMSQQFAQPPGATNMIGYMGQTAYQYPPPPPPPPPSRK
UniProt Q13283: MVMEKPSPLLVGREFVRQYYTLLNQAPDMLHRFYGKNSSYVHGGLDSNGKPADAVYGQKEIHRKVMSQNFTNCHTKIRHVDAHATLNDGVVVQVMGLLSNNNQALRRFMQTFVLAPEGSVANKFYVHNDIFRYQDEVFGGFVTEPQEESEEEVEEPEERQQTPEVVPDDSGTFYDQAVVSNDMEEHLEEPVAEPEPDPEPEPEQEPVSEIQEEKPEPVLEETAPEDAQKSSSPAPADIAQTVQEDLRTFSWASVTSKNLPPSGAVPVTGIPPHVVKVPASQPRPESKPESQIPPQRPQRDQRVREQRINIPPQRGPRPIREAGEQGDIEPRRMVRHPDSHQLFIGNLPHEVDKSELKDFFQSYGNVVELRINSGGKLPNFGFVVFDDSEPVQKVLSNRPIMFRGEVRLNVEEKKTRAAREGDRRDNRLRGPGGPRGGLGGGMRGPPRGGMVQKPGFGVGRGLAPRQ
UniProt P15531: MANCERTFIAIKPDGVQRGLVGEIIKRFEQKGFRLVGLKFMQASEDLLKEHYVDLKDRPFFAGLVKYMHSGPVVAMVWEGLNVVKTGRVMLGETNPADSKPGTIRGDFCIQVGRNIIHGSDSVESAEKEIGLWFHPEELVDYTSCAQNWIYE
UniProt Q9H0Q3, residues 19-95: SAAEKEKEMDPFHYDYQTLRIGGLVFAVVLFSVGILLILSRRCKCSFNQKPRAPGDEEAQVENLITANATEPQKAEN

T1: TIA-1 related protein (TIA-R) (human (endogenous in frontal cortex tissue)) (UniProt Q01085)
T1 sequence: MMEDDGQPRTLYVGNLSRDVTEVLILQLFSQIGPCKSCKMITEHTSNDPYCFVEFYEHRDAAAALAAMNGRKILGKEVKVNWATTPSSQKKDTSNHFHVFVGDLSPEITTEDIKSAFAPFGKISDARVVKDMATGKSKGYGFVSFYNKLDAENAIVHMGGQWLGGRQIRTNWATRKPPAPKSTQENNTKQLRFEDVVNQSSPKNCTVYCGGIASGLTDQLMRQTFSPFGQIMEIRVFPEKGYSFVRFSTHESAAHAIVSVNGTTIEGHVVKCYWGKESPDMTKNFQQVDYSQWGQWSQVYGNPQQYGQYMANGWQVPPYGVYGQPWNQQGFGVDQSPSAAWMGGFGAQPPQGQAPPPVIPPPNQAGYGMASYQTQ

B1: PLA2G2A (protein, UniProt P14555 21-144)
chain: NLVNFHRMIKLTTGKEAALSYGFYGCHCGVGGRGSPKDATDRCCVTHDCCYKRLEKRGCGTKFLSYKFSNSGSRITCAKQDSCRSQLCECDKAAATCFARNKTTYNKKYQYYSNKHCRGSTPRC
B2: T-cell restricted intracellular antigen 1 (TIA-1) (protein, UniProt P31483 1-386)
chain: MEDEMPKTLYVGNLSRDVTEALILQLFSQIGPCKNCKMIMDTAGNDPYCFVEFHEHRHAAAALAAMNGRKIMGKEVKVNWATTPSSQKKDTSSSTVVSTQRSQDHFHVFVGDLSPEITTEDIKAAFAPFGRISDARVVKDMATGKSKGYGFVSFFNKWDAENAIQQMGGQWLGGRQIRTNWATRKPPAPKSTYESNTKQLSYDEVVNQSSPSNCTVYCGGVTSGLTEQLMRQTFSPFGQIMEIRVFPDKGYSFVRFNSHESAAHAIVSVNGTTIEGHVVKCYWGKETLDMINPVQQQNQIGYPQPYGQWGQWYGNAQQIGQYMPNGWQVPAYGMYGQAWNQQGFNQTQSSAPWMGPNYGVQPPQGQNGSMLPNQPSGYRVAGYETQ
B3: NFASC (protein, UniProt O94856 25-1347)
chain: IEIPMDPSIQNELTQPPTITKQSAKDHIVDPRDNILIECEAKGNPAPSFHWTRNSRFFNIAKDPRVSMRRRSGTLVIDFRSGGRPEEYEGEYQCFARNKFGTALSNRIRLQVSKSPLWPKENLDPVVVQEGAPLTLQCNPPPGLPSPVIFWMSSSMEPITQDKRVSQGHNGDLYFSNVMLQDMQTDYSCNARFHFTHTIQQKNPFTLKVLTTRGVAERTPSFMYPQGTASSQMVLRGMDLLLECIASGVPTPDIAWYKKGGDLPSDKAKFENFNKALRITNVSEEDSGEYFCLASNKMGSIRHTISVRVKAAPYWLDEPKNLILAPGEDGRLVCRANGNPKPTVQWMVNGEPLQSAPPNPNREVAGDTIIFRDTQISSRAVYQCNTSNEHGYLLANAFVSVLDVPPRMLSPRNQLIRVILYNRTRLDCPFFGSPIPTLRWFKNGQGSNLDGGNYHVYENGSLEIKMIRKEDQGIYTCVATNILGKAENQVRLEVKDPTRIYRMPEDQVARRGTTVQLECRVKHDPSLKLTVSWLKDDEPLYIGNRMKKEDDSLTIFGVAERDQGSYTCVASTELDQDLAKAYLTVLADQATPTNRLAALPKGRPDRPRDLELTDLAERSVRLTWIPGDANNSPITDYVVQFEEDQFQPGVWHDHSKYPGSVNSAVLRLSPYVNYQFRVIAINEVGSSHPSLPSERYRTSGAPPESNPGDVKGEGTRKNNMEITWTPMNATSAFGPNLRYIVKWRRRETREAWNNVTVWGSRYVVGQTPVYVPYEIRVQAENDFGKGPEPESVIGYSGEDYPRAAPTEVKVRVMNSTAISLQWNRVYSDTVQGQLREYRAYYWRESSLLKNLWVSQKRQQASFPGDRLRGVVSRLFPYSNYKLEMVVVNGRGDGPRSETKEFTTPEGVPSAPRRFRVRQPNLETINLEWDHPEHPNGIMIGYTLKYVAFNGTKVGKQIVENFSPNQTKFTVQRTDPVSRYRFTLSARTQVGSGEAVTEESPAPPNEATPTAAPPTLPPTTVGATGAVSSTDATAIAATTEATTVPIIPTVAPTTIATTTTVATTTTTTAAATTTTESPPTTTSGTKIHESAPDEQSIWNVTVLPNSKWANITWKHNFGPGTDFVVEYIDSNHTKKTVPVKAQAQPIQLTDLYPGMTYTLRVYSRDNEGISSTVITFMTSTAYTNNQADIATQGWFIGLMCAIALLVLILLIVCFIKRSRGGKYPVREKKDVPLGPEDPKEEDGSFDYSDEDNKPLQGSQTSLDGTIKQQESDDSLVDYGEGGEGQFNEDGSFIGQYTVKKDKEETEGNESSEATSPVNAIYSLA
B4: PRDX3 (protein, UniProt P30048 62-256)
chain: APAVTQHAPYFKGTAVVNGEFKDLSLDDFKGKYLVLFFYPLDFTFVCPTEIVAFSDKANEFHDVNCEVVAVSVDSHFSHLAWINTPRKNGGLGHMNIALLSDLTKQISRDYGVLLEGSGLALRGLFIIDPNGVIKHLSVNDLPVGRSVEETLRLVKAFQYVETHGEVCPANWTPDSPTIKPSPAASKEYFQKVNQ
B5: PRR4 (protein, UniProt Q16378 17-134)
chain: QSTDNDVNYEDFTFTIPDVEDSSQRPDQGPQRPPPEGLLPRPPGDSGNQDDGPQQRPPKPGGHHRHPPPPPFQNQQRPPRRGHRQLSLPRFPSVSLQEASSFFQRDRPARHPQEQPLW
B6: SERPING1 (protein, UniProt P05155 23-500)
chain: NPNATSSSSQDPESLQDRGEGKVATTVISKMLFVEPILEVSSLPTTNSTTNSATKITANTTDEPTTQPTTEPTTQPTIQPTQPTTQLPTDSPTQPTTGSFCPGPVTLCSDLESHSTEAVLGDALVDFSLKLYHAFSAMKKVETNMAFSPFSIASLLTQVLLGAGENTKTNLESILSYPKDFTCVHQALKGFTTKGVTSVSQIFHSPDLAIRDTFVNASRTLYSSSPRVLSNNSDANLELINTWVAKNTNNKISRLLDSLPSDTRLVLLNAIYLSAKWKTTFDPKKTRMEPFHFKNSVIKVPMMNSKKYPVAHFIDQTLKAKVGQLQLSHNLSLVILVPQNLKHRLEDMEQALSPSVFKAIMEKLEMSKFQPTLLTLPRIKVTTSQDMLSIMEKLEFFDFSYDLNLCGLTEDPDLQVSAMQHQTVLELTETGVEAAAASAISVARTLLVFEVQQPFLFVLWDQQHKFPVFMGRVYDPRA
B7: RBM3 (protein, UniProt P98179 1-157)
chain: MSSEEGKLFVGGLNFNTDEQALEDHFSSFGPISEVVVVKDRETQRSRGFGFITFTNPEHASVAMRAMNGESLDGRQIRVDHAGKSARGTRGGGFGAHGRGRSYSRGGGDQGYGSGRYYDSRPGGYGYGYGRSRDYNGRNQGGYDRYSGGNYRDNYDN
B8: HARS1 (protein, UniProt P12081 1-509)
chain: MAERAALEELVKLQGERVRGLKQQKASAELIEEEVAKLLKLKAQLGPDESKQKFVLKTPKGTRDYSPRQMAVREKVFDVIIRCFKRHGAEVIDTPVFELKETLMGKYGEDSKLIYDLKDQGGELLSLRYDLTVPFARYLAMNKLTNIKRYHIAKVYRRDNPAMTRGRYREFYQCDFDIAGNFDPMIPDAECLKIMCEILSSLQIGDFLVKVNDRRILDGMFAICGVSDSKFRTICSSVDKLDKVSWEEVKNEMVGEKGLAPEVADRIGDYVQQHGGVSLVEQLLQDPKLSQNKQALEGLGDLKLLFEYLTLFGIDDKISFDLSLARGLDYYTGVIYEAVLLQTPAQAGEEPLGVGSVAAGGRYDGLVGMFDPKGRKVPCVGLSIGVERIFSIVEQRLEALEEKIRTTETQVLVASAQKKLLEERLKLVSELWDAGIKAELLYKKNPKLLNQLQYCEEAGIPLVAIIGEQELKDGVIKLRSVTSREEVDVRREDLVEEIKRRTGQPLCIC
B9: ANXA6 (protein, UniProt P08133 1-673)
chain: MAKPAQGAKYRGSIHDFPGFDPNQDAEALYTAMKGFGSDKEAILDIITSRSNRQRQEVCQSYKSLYGKDLIADLKYELTGKFERLIVGLMRPPAYCDAKEIKDAISGIGTDEKCLIEILASRTNEQMHQLVAAYKDAYERDLEADIIGDTSGHFQKMLVVLLQGTREEDDVVSEDLVQQDVQDLYEAGELKWGTDEAQFIYILGNRSKQHLRLVFDEYLKTTGKPIEASIRGELSGDFEKLMLAVVKCIRSTPEYFAERLFKAMKGLGTRDNTLIRIMVSRSELDMLDIREIFRTKYEKSLYSMIKNDTSGEYKKTLLKLSGGDDDAAGQFFPEAAQVAYQMWELSAVARVELKGTVRPANDFNPDADAKALRKAMKGLGTDEDTIIDIITHRSNVQRQQIRQTFKSHFGRDLMTDLKSEISGDLARLILGLMMPPAHYDAKQLKKAMEGAGTDEKALIEILATRTNAEIRAINEAYKEDYHKSLEDALSSDTSGHFRRILISLATGHREEGGENLDQAREDAQVAAEILEIADTPSGDKTSLETRFMTILCTRSYPHLRRVFQEFIKMTNYDVEHTIKKEMSGDVRDAFVAIVQSVKNKPLFFADKLYKSMKGAGTDEKTLTRIMVSRSEIDLLNIRREFIEKYDKSLHQAIEGDTSGDFLKALLALCGGED
B10: APOL1 (protein, UniProt O14791 28-398)
chain: EEAGARVQQNVPSGTDTGDPQSKPLGDWAAGTMDPESSIFIEDAIKYFKEKVSTQNLLLLLTDNEAWNGFVAAAELPRNEADELRKALDNLARQMIMKDKNWHDKGQQYRNWFLKEFPRLKSELEDNIRRLRALADGVQKVHKGTTIANVVSGSLSISSGILTLVGMGLAPFTEGGSLVLLEPGMELGITAALTGITSSTMDYGKKWWTQAQAHDLVIKSLDKLKEVREFLGENISNFLSLAGNTYQLTRGIGKDIRALRRARANLQSVPHASASRPRVTEPISAESGEQVERVNEPSILEMSRGVKLTDVAPVSFFLVLDVVYLVYESKHLHEGAKSETAEELKKVAQELEEKLNILNNNYKILQADQEL

Target: T1, TIA-1 related protein (TIA-R) (human (endogenous in frontal cortex tissue))
Assay: affinity purification with mass spectrometry

binding | Molecule
binds | PABPC1 (from UniProt P11940 1-636)
binds | EEF1A2 (from UniProt Q05639 1-463)
binds | RBBP9 (from UniProt O75884 1-186)
binds | ZFHX4 (from UniProt Q86UP3 1-3567)
binds | APP (from UniProt P05067)
binds | DGKI (from UniProt O75912 1-1057)
binds | EIF4A3 (from UniProt P38919 1-411)
binds | HNRNPAB (from UniProt Q99729 1-332)
binds | TUBA4A (from UniProt P68366 1-448)
binds | GSN (from UniProt P06396 28-782)
binds | YBX1 (from UniProt P67809 1-324)
binds | TUBA1B (from UniProt P68363 1-451)
binds | EIF5 (from UniProt P55010 1-431)
binds | DDX17 (from UniProt Q92841 1-729)
binds | RasGAP SH3-domain binding protein 1 (G3BP1) (from UniProt Q13283 1-466)
binds | NME1 (from UniProt P15531 1-152)
binds | FXYD6 (from UniProt Q9H0Q3 19-95)
binds | B1
binds | B2
binds | B3
binds | B4
binds | B5
binds | B6
binds | B7
binds | B8
binds | B9
binds | B10

These are yes or no findings as the source states them, for the method shown. Binding seen in cells or lysates may run through a third protein. A yes stands for co-enrichment or nearness to the bait. Other partners may have been found.
